No constants are given. Whether binding was seen depends on the method and setting. Some entries that bind do so weakly or less than the wild type.
Target: T1, Wbp1-CPLV (S. cerevisiae) (UniProt P33767)
T1 sequence: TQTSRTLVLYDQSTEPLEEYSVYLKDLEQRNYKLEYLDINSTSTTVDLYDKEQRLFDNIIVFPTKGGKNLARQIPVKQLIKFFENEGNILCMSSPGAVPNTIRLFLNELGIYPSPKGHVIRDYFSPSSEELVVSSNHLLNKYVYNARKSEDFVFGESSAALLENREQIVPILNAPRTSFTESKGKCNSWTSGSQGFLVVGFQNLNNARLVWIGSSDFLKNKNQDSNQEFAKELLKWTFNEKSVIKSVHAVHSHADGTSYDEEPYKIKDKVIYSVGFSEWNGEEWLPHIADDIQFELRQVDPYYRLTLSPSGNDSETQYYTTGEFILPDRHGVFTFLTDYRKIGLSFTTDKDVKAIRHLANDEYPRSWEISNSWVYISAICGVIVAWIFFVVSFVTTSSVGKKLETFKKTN
Test: two-hybrid; split-ubiquitin (NubG prey, Cub-PLV bait) plate assay: growth without histidine, leucine and tryptophan and blue colour on X-gal, 3 days at 30°C; baits integrated in heterozygous diploids KRY518 or KRY548; positive control in haploid L40 with both fusions from plasmids

binding: binds
B1: Ost1p-Nub (protein, UniProt P41543 23-476)
chain: AQYEPPATWENVDYKRTIDVSNAYISETIEITIKNIASEPATEYFTAFESGIFSKVSFFSAYFTNEATFLNSQLLANSTTAPGDDGESEIRYGIIQFPNAISPQEEVSLVIKSFYNTVGIPYPEHVGMSEEQHLLWETNRLPLSAYDTKKASFTLIGSSSFEEYHPPNDESLLGKANGNSFEFGPWEDIPRFSSNETLAIVYSHNAPLNQVVNLRRDIWLSHWASTIQFEEYYELTNKAAKLSKGFSRLELMKQIQTQNMRQTHFVTVLDMLLPEGATDHYFTDLVGLVSTSHAERDHFFIRPRFPIFGGWNYNFTVGWTNKLSDFLHVSSGSDEKFVASIPILNGPPDTVYDNVELSVFLPEGAEIFDIDSPVPFTNVSIETQKSYFDLNKGHVKLTFSYRNLISQVANGQVLIKYDYPKSSFFKKPLSIACYIFTALMGVFVLKTLNMNVTN

Source: article PMC3618304
